Record: PubChem BioAssay AID1224829 (NIAID, 2016)
Purpose: 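Secondary check of hits that alter LPS-induced p65 translocation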 (follow-up of hits). Cell system: mouse RAW264.7 G9 macrophage reporter cells. Reagent: single siRNA against mouse genes, 100 nM. Duration: 2 days of siRNA knock-down, then 40 min of LPS before fixing. Treatment: LPS (Salmonella minnesota R595) at 10 ng/ml. Measured: 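High-content images after 40 min LPS exposure; GFP-p65 nucleus to surrounding ring signal ratio, normalised to plate median and non-targeting control wells, expressed as z-score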. Direction: p65 translocation z-score: higher = more nuclear NF-kappaB p65 after LPS. Rule for the call: 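Active means the replicate-mean z-score lies beyond plus or minus 2, in either direction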. Meaning of the calls: active = changed p65 translocation (either direction); inactive = no clear change.
Here is an unselected part of about 3,800 reagents. 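Calls cover raised and lowered translocation; gene median uses one vendor's three siRNAs; qiagen siRNAs acted more weakly than ambion siRNAs.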 The numbers tell different reagents against one gene apart. Further read-outs or replicates are left out here. Reagent sequences are not shown.

{"target gene": "Hdac5", "siRNA no.": 1, "siRNA vendor or control pool": "ambion single siRNA", "p65 translocation z-score, replicate mean": -0.807, "Call": "inactive"}
{"target gene": "Hdac5", "siRNA no.": 2, "siRNA vendor or control pool": "ambion single siRNA", "p65 translocation z-score, replicate mean": -1.73, "Call": "inactive"}
{"target gene": "Hdac5", "siRNA no.": 3, "siRNA vendor or control pool": "ambion single siRNA", "p65 translocation z-score, replicate mean": -1.99, "Call": "inactive"}
{"target gene": "Hdac5", "siRNA no.": 4, "siRNA vendor or control pool": "qiagen single siRNA", "p65 translocation z-score, replicate mean": 0.433, "Call": "inactive"}
{"target gene": "Hdac5", "siRNA no.": 5, "siRNA vendor or control pool": "qiagen single siRNA", "p65 translocation z-score, replicate mean": -1.85, "Call": "inactive"}
{"target gene": "Hdac5", "siRNA no.": 6, "siRNA vendor or control pool": "qiagen single siRNA", "p65 translocation z-score, replicate mean": -2.67, "Call": "active"}
{"target gene": "Mthfsd", "siRNA no.": 1, "siRNA vendor or control pool": "ambion single siRNA", "p65 translocation z-score, replicate mean": -1.16, "Call": "inactive"}
{"target gene": "Mthfsd", "siRNA no.": 2, "siRNA vendor or control pool": "ambion single siRNA", "p65 translocation z-score, replicate mean": -0.121, "Call": "inactive"}
{"target gene": "Mthfsd", "siRNA no.": 3, "siRNA vendor or control pool": "ambion single siRNA", "p65 translocation z-score, replicate mean": 0.605, "Call": "inactive"}
{"target gene": "Mthfsd", "siRNA no.": 4, "siRNA vendor or control pool": "qiagen single siRNA", "p65 translocation z-score, replicate mean": -2.56, "Call": "active"}
{"target gene": "Mthfsd", "siRNA no.": 5, "siRNA vendor or control pool": "qiagen single siRNA", "p65 translocation z-score, replicate mean": 1.23, "Call": "inactive"}
{"target gene": "Mthfsd", "siRNA no.": 6, "siRNA vendor or control pool": "qiagen single siRNA", "p65 translocation z-score, replicate mean": 0.0133, "Call": "inactive"}
{"target gene": "Spp2", "siRNA no.": 1, "siRNA vendor or control pool": "ambion single siRNA", "p65 translocation z-score, replicate mean": -1.87, "Call": "inactive"}
{"target gene": "Spp2", "siRNA no.": 2, "siRNA vendor or control pool": "ambion single siRNA", "p65 translocation z-score, replicate mean": -1.97, "Call": "inactive"}
{"target gene": "Spp2", "siRNA no.": 3, "siRNA vendor or control pool": "ambion single siRNA", "p65 translocation z-score, replicate mean": -3.98, "Call": "active"}
{"target gene": "Abcb1a", "siRNA no.": 1, "siRNA vendor or control pool": "ambion single siRNA", "p65 translocation z-score, replicate mean": -1.27, "Call": "inactive"}
{"target gene": "Abcb1a", "siRNA no.": 2, "siRNA vendor or control pool": "ambion single siRNA", "p65 translocation z-score, replicate mean": -0.33, "Call": "inactive"}
{"target gene": "Abcb1a", "siRNA no.": 3, "siRNA vendor or control pool": "ambion single siRNA", "p65 translocation z-score, replicate mean": -4.69, "Call": "active"}
{"target gene": "Abcb1a", "siRNA no.": 4, "siRNA vendor or control pool": "qiagen single siRNA", "p65 translocation z-score, replicate mean": 2.38, "Call": "active"}
{"target gene": "Abcb1a", "siRNA no.": 5, "siRNA vendor or control pool": "qiagen single siRNA", "p65 translocation z-score, replicate mean": -2.81, "Call": "active"}
{"target gene": "Abcb1a", "siRNA no.": 6, "siRNA vendor or control pool": "qiagen single siRNA", "p65 translocation z-score, replicate mean": -1.24, "Call": "inactive"}
{"target gene": "Fam110a", "siRNA no.": 1, "siRNA vendor or control pool": "ambion single siRNA", "p65 translocation z-score, replicate mean": 0.0934, "Call": "inactive"}
{"target gene": "Fam110a", "siRNA no.": 2, "siRNA vendor or control pool": "ambion single siRNA", "p65 translocation z-score, replicate mean": -1.32, "Call": "inactive"}
{"target gene": "Fam110a", "siRNA no.": 3, "siRNA vendor or control pool": "ambion single siRNA", "p65 translocation z-score, replicate mean": -2.37, "Call": "active"}
{"target gene": "Fam110a", "siRNA no.": 4, "siRNA vendor or control pool": "qiagen single siRNA", "p65 translocation z-score, replicate mean": 2.06, "Call": "active"}
{"target gene": "Fam110a", "siRNA no.": 5, "siRNA vendor or control pool": "qiagen single siRNA", "p65 translocation z-score, replicate mean": 6.07, "Call": "active"}
{"target gene": "Fam110a", "siRNA no.": 6, "siRNA vendor or control pool": "qiagen single siRNA", "p65 translocation z-score, replicate mean": 1.49, "Call": "inactive"}
{"target gene": "Mettl18", "siRNA no.": 1, "siRNA vendor or control pool": "ambion single siRNA", "p65 translocation z-score, replicate mean": -3.54, "Call": "active"}
{"target gene": "Mettl18", "siRNA no.": 2, "siRNA vendor or control pool": "ambion single siRNA", "p65 translocation z-score, replicate mean": -0.429, "Call": "inactive"}
{"target gene": "Mettl18", "siRNA no.": 3, "siRNA vendor or control pool": "ambion single siRNA", "p65 translocation z-score, replicate mean": -5.58, "Call": "active"}
{"target gene": "Mettl18", "siRNA no.": 4, "siRNA vendor or control pool": "qiagen single siRNA", "p65 translocation z-score, replicate mean": 3.65, "Call": "active"}
{"target gene": "Mettl18", "siRNA no.": 5, "siRNA vendor or control pool": "qiagen single siRNA", "p65 translocation z-score, replicate mean": -1.09, "Call": "inactive"}
{"target gene": "Mettl18", "siRNA no.": 6, "siRNA vendor or control pool": "qiagen single siRNA", "p65 translocation z-score, replicate mean": 2.4, "Call": "active"}

Entries above whose gene name begins with H or h:
{"target gene": "Hdac5", "siRNA no.": 1, "siRNA vendor or control pool": "ambion single siRNA", "p65 translocation z-score, replicate mean": -0.807, "Call": "inactive"}
{"target gene": "Hdac5", "siRNA no.": 2, "siRNA vendor or control pool": "ambion single siRNA", "p65 translocation z-score, replicate mean": -1.73, "Call": "inactive"}
{"target gene": "Hdac5", "siRNA no.": 3, "siRNA vendor or control pool": "ambion single siRNA", "p65 translocation z-score, replicate mean": -1.99, "Call": "inactive"}
{"target gene": "Hdac5", "siRNA no.": 4, "siRNA vendor or control pool": "qiagen single siRNA", "p65 translocation z-score, replicate mean": 0.433, "Call": "inactive"}
{"target gene": "Hdac5", "siRNA no.": 5, "siRNA vendor or control pool": "qiagen single siRNA", "p65 translocation z-score, replicate mean": -1.85, "Call": "inactive"}
{"target gene": "Hdac5", "siRNA no.": 6, "siRNA vendor or control pool": "qiagen single siRNA", "p65 translocation z-score, replicate mean": -2.67, "Call": "active"}
